From article PMC10985101
No constants are given. Whether binding was seen depends on the method and setting. Binding seen in cells or lysates may run through a third protein. Some results given as binding are weak or reduced against the parent protein; the word gives no strength. Tags and fused reporters may be left off the sequences shown.

The chains behind the UniProt entries cited, without tags or fusion partners. Residues count along the entry.
UniProt P20700: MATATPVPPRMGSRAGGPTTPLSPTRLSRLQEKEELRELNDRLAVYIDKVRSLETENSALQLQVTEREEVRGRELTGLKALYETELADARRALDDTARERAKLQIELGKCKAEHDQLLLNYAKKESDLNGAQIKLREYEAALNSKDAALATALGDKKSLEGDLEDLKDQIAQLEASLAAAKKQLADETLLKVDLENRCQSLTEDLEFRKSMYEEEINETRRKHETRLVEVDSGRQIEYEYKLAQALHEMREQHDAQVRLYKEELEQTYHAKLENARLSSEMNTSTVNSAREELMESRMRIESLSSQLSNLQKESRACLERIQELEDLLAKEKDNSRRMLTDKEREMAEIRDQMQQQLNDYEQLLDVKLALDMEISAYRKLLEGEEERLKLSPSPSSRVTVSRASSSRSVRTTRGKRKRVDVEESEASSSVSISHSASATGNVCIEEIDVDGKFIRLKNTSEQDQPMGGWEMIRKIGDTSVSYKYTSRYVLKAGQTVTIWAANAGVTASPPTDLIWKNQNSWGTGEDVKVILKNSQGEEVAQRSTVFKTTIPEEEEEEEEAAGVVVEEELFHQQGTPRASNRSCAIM
UniProt P02545, residues 1-646: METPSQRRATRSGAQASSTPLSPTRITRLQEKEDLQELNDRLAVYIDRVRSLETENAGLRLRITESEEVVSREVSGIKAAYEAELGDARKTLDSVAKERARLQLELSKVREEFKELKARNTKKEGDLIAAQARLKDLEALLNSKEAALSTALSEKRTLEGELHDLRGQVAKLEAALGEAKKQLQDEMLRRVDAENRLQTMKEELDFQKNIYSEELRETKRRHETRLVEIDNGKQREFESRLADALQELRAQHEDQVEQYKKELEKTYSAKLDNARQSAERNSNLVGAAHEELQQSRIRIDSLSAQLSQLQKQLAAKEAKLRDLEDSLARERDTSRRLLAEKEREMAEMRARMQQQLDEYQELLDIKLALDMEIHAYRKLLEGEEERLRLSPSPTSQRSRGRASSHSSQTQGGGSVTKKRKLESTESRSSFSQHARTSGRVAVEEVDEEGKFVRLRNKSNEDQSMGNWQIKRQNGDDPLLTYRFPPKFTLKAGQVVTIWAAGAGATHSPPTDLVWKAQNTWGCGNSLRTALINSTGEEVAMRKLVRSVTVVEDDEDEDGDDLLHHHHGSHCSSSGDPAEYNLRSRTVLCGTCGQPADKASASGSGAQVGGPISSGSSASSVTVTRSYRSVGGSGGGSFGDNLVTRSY

Experiments:
Myc-CREB3-CF = target: T1, Myc-CREB3-CF (UniProt O43889); experiment: co-IP; IP with Myc-CREB3-CF and its serial deletion mutants; lysates (150 μg) with antibody at 4 °C for 4 h or overnight, protein G Sepharose beads; washed with 20 mM Tris pH 8.0, 100 mM NaCl, 1 mM EDTA, 0.5% NP-40; Western blot
T1 sequence: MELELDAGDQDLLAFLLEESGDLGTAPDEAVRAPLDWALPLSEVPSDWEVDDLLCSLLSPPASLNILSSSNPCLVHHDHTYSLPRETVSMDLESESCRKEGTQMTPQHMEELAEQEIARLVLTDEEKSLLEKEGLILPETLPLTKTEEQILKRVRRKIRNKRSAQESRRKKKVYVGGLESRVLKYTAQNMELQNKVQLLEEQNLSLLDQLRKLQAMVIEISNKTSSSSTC

[1] = target: T2, His-CREB3-CF fusion protein (cleaved form of cyclic AMP-responsive element-binding protein 3) (UniProt O43889); experiment: pull-down; His-CREB3-CF on HisPur Ni-NTA resin, combined with HEK293T lysates with transiently expressed mCherry-Lamin A or mCherry-Lamin B1, overnight at 4 °C; washed with 100 mM NaCl, 20 mM Tris pH 8.0, 1 mM EDTA, 0.5% NP-40; Western blot; only the target purified
T2 sequence: T1 sequence

| Substance | binding (Myc-CREB3-CF) | binding [1] |
| --- | --- | --- |
| Lamin B1 (as in the IP of Fig. 3c) (from UniProt P20700 1-586) | binds |  |
| mCherry-Lamin A (from UniProt P02545 1-646) |  | binds |
| mCherry-Lamin B1 (from UniProt P20700 1-586) |  | binds |
